Test results: article PMC9605497, “Potential of Epidermal Growth Factor-like Peptide from the Sea Cucumber Stichopus horrens to Increase the Growth of Human Cells: In Silico Molecular Docking Approach” (Marine Drugs, 2022)
No constants are given. Whether binding was seen depends on the method and setting. Some binding calls cover weakened binding; strength is not graded here.

Molecular target: human epidermal growth factor receptor (human (endogenous in melanoma cells CRL-1872)) (UniProt P00533)
Assay: ligand binding assay on fixed cells (biotinylated ligand, NeutrAvidin-HRP, ABTS, absorbance at 405 nm); formalin-fixed human melanoma cells in a 96-well plate; biotinylated peptide at 10, 50 and 500 nM in MEM with 0.1% BSA and 200 mM HEPES, 37 °C, 1 h; washes with cold PBS and 0.3 M NaCl; triplicates; only the binder purified

B1: Sh-EGFl-1 peptide (epidermal growth factor-like peptide from Stichopus horrens) (peptide)
peptide: NINECFSSPCENQGICQDEIDGYNCVCQPGFTGTHCESSMLNHVI
modifications: biotin (conjugated with NHS-biotin; sites not stated)
binding: binds
